Test results as given in the M2OR odorant receptor database.
Positions count from the first letter of the chain named. This is one part of the list. Calls are pooled over several reports, among them a noisy single-well screen.

Chains of the proteins cited; added tags and fusions are not shown. Chains listed by the source or under a name are the forms on record and can include a tag or linker.
O11H2, as listed by the source: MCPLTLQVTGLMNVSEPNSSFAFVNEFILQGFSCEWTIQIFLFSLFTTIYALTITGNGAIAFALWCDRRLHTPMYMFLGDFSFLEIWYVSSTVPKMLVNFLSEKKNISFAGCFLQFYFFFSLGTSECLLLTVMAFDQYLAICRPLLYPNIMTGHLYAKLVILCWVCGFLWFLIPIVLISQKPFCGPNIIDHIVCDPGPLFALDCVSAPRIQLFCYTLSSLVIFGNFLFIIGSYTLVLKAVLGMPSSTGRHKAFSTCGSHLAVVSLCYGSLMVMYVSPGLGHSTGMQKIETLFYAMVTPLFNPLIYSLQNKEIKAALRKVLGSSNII

What was measured:
Details in all cases: stereoisomer not certain
O10R2 [1] = test system: T1, O10R2
T1 sequence (whole entry): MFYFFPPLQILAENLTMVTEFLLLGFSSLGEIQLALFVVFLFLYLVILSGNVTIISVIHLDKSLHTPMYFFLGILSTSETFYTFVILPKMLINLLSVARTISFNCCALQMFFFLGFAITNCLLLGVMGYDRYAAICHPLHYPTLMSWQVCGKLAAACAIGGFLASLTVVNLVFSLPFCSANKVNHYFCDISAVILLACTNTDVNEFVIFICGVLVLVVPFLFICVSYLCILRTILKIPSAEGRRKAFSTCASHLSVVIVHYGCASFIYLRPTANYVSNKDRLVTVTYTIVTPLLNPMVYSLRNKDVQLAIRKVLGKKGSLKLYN
How it was run: (§1)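 Whether a receptor–molecule pair is responsive (active) rests on the original authors' judgment that its measured signal was statistically different from baseline. Pairs without that judgment are non-responsive (inactive). Sources used varied assay methods, commonly transient luciferase assays in mammalian cell lines.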

O10R2 [2] = test system: T2, O10R2; remark: listed apart in the source
T2 sequence (whole entry): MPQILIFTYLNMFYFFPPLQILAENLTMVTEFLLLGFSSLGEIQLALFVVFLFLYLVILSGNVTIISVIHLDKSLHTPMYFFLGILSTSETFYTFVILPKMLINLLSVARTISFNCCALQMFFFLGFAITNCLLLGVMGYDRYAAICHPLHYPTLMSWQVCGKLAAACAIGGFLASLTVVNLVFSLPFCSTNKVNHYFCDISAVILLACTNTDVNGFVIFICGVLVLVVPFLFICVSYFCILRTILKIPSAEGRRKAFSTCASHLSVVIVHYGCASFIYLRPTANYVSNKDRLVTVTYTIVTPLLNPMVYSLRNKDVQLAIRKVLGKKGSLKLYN
How it was run: as §1

O10V1 = test system: T3, O10V1
T3 sequence (whole entry): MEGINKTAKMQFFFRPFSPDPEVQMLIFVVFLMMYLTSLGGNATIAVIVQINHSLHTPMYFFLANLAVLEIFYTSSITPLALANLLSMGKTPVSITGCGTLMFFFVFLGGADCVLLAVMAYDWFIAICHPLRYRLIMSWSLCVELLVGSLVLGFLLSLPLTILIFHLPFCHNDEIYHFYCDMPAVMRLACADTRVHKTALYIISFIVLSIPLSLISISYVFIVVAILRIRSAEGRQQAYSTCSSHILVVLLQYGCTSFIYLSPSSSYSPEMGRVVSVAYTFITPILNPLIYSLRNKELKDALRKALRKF
How it was run: as §1

O10W1 = test system: T4, O10W1
T4 sequence (whole entry): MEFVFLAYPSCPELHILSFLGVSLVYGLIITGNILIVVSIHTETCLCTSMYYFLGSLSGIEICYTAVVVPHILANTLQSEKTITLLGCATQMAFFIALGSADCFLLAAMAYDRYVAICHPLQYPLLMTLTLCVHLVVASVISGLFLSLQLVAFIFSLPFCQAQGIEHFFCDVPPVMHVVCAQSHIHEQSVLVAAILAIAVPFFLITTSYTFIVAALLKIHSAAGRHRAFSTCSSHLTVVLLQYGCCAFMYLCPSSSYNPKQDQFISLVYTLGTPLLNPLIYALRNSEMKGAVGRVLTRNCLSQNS
How it was run: as §1

O10X1 = test system: T5, O10X1
T5 sequence (whole entry): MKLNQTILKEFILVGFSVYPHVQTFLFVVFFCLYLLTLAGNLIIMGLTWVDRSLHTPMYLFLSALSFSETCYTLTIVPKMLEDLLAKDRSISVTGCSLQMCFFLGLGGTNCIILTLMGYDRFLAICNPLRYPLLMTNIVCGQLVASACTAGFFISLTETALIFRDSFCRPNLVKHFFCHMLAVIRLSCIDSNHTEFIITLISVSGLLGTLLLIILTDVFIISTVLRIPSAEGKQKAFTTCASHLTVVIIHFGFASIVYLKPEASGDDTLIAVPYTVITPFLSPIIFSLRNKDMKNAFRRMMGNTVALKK
How it was run: as §1

O11G2 = test system: T6, O11G2
T6 sequence (whole entry): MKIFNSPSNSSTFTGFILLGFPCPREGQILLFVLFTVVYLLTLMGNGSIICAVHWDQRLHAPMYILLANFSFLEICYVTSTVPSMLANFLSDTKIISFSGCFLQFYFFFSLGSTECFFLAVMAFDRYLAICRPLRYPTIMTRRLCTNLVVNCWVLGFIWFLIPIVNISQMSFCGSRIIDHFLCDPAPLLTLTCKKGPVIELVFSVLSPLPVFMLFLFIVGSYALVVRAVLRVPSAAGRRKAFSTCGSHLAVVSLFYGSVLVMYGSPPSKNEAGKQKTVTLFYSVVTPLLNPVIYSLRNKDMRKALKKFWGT
How it was run: as §1

O11H1 [3] = test system: T7, O11H1
T7 sequence (whole entry): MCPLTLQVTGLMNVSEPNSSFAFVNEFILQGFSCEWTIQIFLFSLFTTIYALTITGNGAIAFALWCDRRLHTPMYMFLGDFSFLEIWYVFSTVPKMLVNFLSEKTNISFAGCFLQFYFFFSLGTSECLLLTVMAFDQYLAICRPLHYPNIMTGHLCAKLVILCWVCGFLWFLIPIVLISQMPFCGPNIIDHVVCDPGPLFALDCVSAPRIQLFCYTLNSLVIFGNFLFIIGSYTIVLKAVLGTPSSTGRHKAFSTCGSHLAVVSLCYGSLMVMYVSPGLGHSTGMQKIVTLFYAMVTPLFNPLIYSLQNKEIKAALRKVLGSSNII
How it was run: as §1

O11H1 [4] = test system: T8, O11H1; remark: listed apart in the source
T8 sequence (whole entry): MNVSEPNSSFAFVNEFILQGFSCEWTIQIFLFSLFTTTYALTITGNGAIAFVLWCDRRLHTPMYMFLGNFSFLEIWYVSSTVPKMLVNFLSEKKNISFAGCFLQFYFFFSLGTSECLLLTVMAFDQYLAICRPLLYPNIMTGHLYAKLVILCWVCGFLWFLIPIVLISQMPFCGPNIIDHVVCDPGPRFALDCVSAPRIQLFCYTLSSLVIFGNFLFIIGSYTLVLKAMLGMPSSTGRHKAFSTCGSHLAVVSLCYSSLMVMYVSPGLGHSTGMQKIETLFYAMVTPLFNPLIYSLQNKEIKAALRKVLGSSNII
How it was run: as §1

O11H2 = test system: T9, O11H2
T9 sequence (whole entry): T7 sequence (whole entry) with F90S, T105K, H146L, C156Y, M181K, V192I, N218S, I235L, T243M, V289E
How it was run: as §1

O11H4 = test system: T10, O11H4
T10 sequence (whole entry): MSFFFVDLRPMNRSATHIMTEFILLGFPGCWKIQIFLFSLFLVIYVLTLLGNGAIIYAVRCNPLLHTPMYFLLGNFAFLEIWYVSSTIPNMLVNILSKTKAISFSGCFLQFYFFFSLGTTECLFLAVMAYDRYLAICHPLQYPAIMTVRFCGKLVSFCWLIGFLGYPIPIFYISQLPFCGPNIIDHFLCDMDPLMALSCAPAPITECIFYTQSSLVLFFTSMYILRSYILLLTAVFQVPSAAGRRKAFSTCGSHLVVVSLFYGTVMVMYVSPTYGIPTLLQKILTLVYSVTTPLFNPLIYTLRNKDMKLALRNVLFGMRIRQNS
How it was run: as §1
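Note: active if original authors judged signal statistically different from baseline.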

SMILES: CS
- odorant receptor agonist call (O10R2 [1]): inactive
- odorant receptor agonist call (O10R2 [2]): inactive
- odorant receptor agonist call (O10V1): inactive
- odorant receptor agonist call (O10W1): inactive
- odorant receptor agonist call (O10X1): inactive
- odorant receptor agonist call (O11G2): active
- odorant receptor agonist call (O11H1 [3]): inactive
- odorant receptor agonist call (O11H1 [4]): inactive
- odorant receptor agonist call (O11H2): inactive
- odorant receptor agonist call (O11H4): inactive

SMILES: CCCCOC(C)=O
- odorant receptor agonist call (O10R2 [1]): inactive
- odorant receptor agonist call (O10R2 [2]): inactive
- odorant receptor agonist call (O10V1): inactive
- odorant receptor agonist call (O10W1): inactive
- odorant receptor agonist call (O10X1): inactive
- odorant receptor agonist call (O11G2): inactive
- odorant receptor agonist call (O11H1 [3]): inactive
- odorant receptor agonist call (O11H1 [4]): inactive
- odorant receptor agonist call (O11H2): inactive
- odorant receptor agonist call (O11H4): inactive

SMILES: CCC(C)=O
- odorant receptor agonist call (O10R2 [1]): inactive
- odorant receptor agonist call (O10R2 [2]): inactive
- odorant receptor agonist call (O10V1): inactive
- odorant receptor agonist call (O10W1): inactive
- odorant receptor agonist call (O10X1): inactive
- odorant receptor agonist call (O11G2): inactive
- odorant receptor agonist call (O11H1 [3]): inactive
- odorant receptor agonist call (O11H1 [4]): inactive
- odorant receptor agonist call (O11H2): inactive
- odorant receptor agonist call (O11H4): inactive
